{"source": "PubChem BioAssay AID587", "about": "(National Center for Advancing Translational Sciences (NCATS), 2007)", "note": "Out of some 59,000 compounds screened, about 35 (0.06%) were called active. Inconclusive results, whose numbers are uncertain, are shown with a selection of clear calls. Cut-off read from the data, not from the text of the source: active = max dye-equivalent concentration above about 10 nM; inconclusive = between about 1.1 nM and that limit; inactive = weaker than that.", "data": [{"assay": "qHTS Assay for Spectroscopic Profiling in Texas Red Spectral Region", "details": "Compound fluorescence, Texas Red channel, 547/618 nm; stronger effect = higher value", "how_it_was_run": "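Pin-transferred compounds and Texas Red standards go into 100 mM Tris buffer, pH 8.0. After 15 min at room temperature, plates are imaged with 547/618 nm filters. Each value is a dye-equivalent concentration derived from the per-plate dye curve.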", "values": [{"smiles": "COC(=O)c1ccc(S(=O)(=O)NCCSc2nnc3c4ccccc4n(C)c3n2)cc1", "max dye-equivalent concentration": "inconclusive: 1.2 nM"}, {"smiles": "COCCn1c(=S)[nH]c2cc(C(=O)N3CCN(c4ccc(F)cc4)CC3)ccc2c1=O", "max dye-equivalent concentration": "inconclusive: 1.1 nM"}, {"smiles": "COc1ccccc1-c1nnc(SCC(=O)Nc2ccc(Cl)cc2Cl)o1", "max dye-equivalent concentration": "inconclusive: 1.6 nM"}, {"smiles": "CCN(C(=O)CN1CCN(c2ccccc2)CC1)c1c(N)n(Cc2ccccc2)c(=O)[nH]c1=O", "max dye-equivalent concentration": "inconclusive: 1.1 nM"}, {"smiles": "Clc1ccc(-n2nnnc2-c2ccccc2)cc1", "max dye-equivalent concentration": "inconclusive: 1.3 nM"}, {"smiles": "CC(OC(=O)c1cccs1)C(=O)NCC1CCCO1", "note": "(stereo not given)", "max dye-equivalent concentration": "inconclusive: 1.7 nM"}, {"smiles": "COC(=O)c1cc(NC(=O)CSc2nc(C)cc(=O)[nH]2)cc(C(=O)OC)c1", "max dye-equivalent concentration": "inconclusive: 2 nM"}, {"smiles": "Cc1ccc(S(=O)(=O)c2nc(-c3ccccc3)oc2NCCN2CCOCC2)cc1", "max dye-equivalent concentration": "inconclusive: 1.6 nM"}, {"smiles": "N=C1C(c2nc3ccccc3[nH]2)=C(O)CN1c1ccccc1", "max dye-equivalent concentration": "inconclusive: 1.9 nM"}, {"smiles": "Cc1ccc(C2CC(=O)c3cnc(N4CCN(c5ccccc5)CC4)nc3C2)cc1", "note": "(stereo not given)", "max dye-equivalent concentration": "inconclusive: 1.2 nM"}, {"smiles": "Cc1cccc(-c2nnc(-c3ccc(N)cc3)o2)c1", "max dye-equivalent concentration": "inconclusive: 1.9 nM"}, {"smiles": "COCCn1c(=O)c(-c2ccc(OC)cc2)nc2cnc(Oc3ccc(OC)cc3)nc21", "max dye-equivalent concentration": "inconclusive: 1.1 nM"}, {"smiles": "COc1cccc(-c2csc(N3CCN(C(=O)C4CCCCC4)CC3)n2)c1", "max dye-equivalent concentration": "inconclusive: 1.1 nM"}, {"smiles": "COc1ccc(CCNC(=O)c2cc(-c3ccccc3)on2)cc1OC", "max dye-equivalent concentration": "inconclusive: 1.1 nM"}, {"smiles": "Cc1cccc(/N=C/c2c(O)cc(C)oc2=O)n1", "max dye-equivalent concentration": "inconclusive: 1.9 nM"}, {"smiles": "COc1cccc(OC)c1OCCNC[C@@H]1COc2ccccc2O1", "max dye-equivalent concentration": "inconclusive: 1.4 nM"}, {"smiles": "Cc1onc(-c2ccccc2)c1C(=O)Nc1nc2c(s1)CCCC2", "max dye-equivalent concentration": "inconclusive: 1.1 nM"}, {"smiles": "COc1ccc(CC(=O)N(Cc2cc3cc(OC)ccc3[nH]c2=O)C(C)C)cc1", "max dye-equivalent concentration": "inconclusive: 1.8 nM"}, {"smiles": "COCCn1c(C)cc(C(=O)COC(=O)c2ccc3ncsc3c2)c1C", "max dye-equivalent concentration": "inconclusive: 1.6 nM"}, {"smiles": "Cc1c(CN2CCN(c3cccc(C(F)(F)F)c3)CC2)c(=O)n(-c2ccccc2)n1C", "max dye-equivalent concentration": "inconclusive: 1.1 nM"}, {"smiles": "CC(=O)C1=C(O)CCC1=N", "max dye-equivalent concentration": "inconclusive: 1.1 nM"}, {"smiles": "CCN(C(=O)c1cccs1)c1nnc(-c2ccncc2)s1", "max dye-equivalent concentration": "inconclusive: 3.4 nM"}, {"smiles": "O=C(OCc1nnc(-c2ccccc2)o1)C1CCN(S(=O)(=O)c2cccs2)CC1", "max dye-equivalent concentration": "inconclusive: 1.1 nM"}, {"smiles": "CCn1nc(NC(=O)c2ccccn2)c2cc3cc(C)ccc3nc21", "max dye-equivalent concentration": "inconclusive: 1.4 nM"}, {"smiles": "CN(C)CCCN1C(=O)C(=O)/C(=C(/O)c2ccncc2)C1c1cccnc1", "note": "(stereo not given)", "max dye-equivalent concentration": "inconclusive: 1.3 nM"}, {"smiles": "CCC(=O)N1c2ccc(S(=O)(=O)CCC(=O)N3CCN(c4ccccc4)CC3)cc2CC1C", "note": "(stereo not given)", "max dye-equivalent concentration": "inconclusive: 1.5 nM"}, {"smiles": "CCC(C)(C)NC(=O)CN(C(=O)CNS(=O)(=O)c1ccc(C)cc1)c1ccc2c(c1)OCCO2", "max dye-equivalent concentration": "inconclusive: 1.5 nM"}, {"smiles": "CCNC(=O)NC(=O)CSc1cccc(C(F)(F)F)c1", "max dye-equivalent concentration": "inconclusive: 1.4 nM"}, {"smiles": "CCN(CC)S(=O)(=O)c1cccc(C(=O)Nc2cc(C)nn2-c2nc(C)cc(C)n2)c1", "max dye-equivalent concentration": "inconclusive: 1.7 nM"}, {"smiles": "CCOC(=O)N1CCN(C(=O)C(NS(=O)(=O)c2cccc3nsnc23)c2ccccc2)CC1", "note": "(stereo not given)", "max dye-equivalent concentration": "inconclusive: 1.2 nM"}, {"smiles": "CCn1nccc1C(=O)Nc1nccs1", "max dye-equivalent concentration": "inconclusive: 1.3 nM"}, {"smiles": "CC(C)(C)NC(=O)C(c1ccco1)N(Cc1ccc(F)cc1)C(=O)c1snc(C(N)=O)c1N", "note": "(stereo not given)", "max dye-equivalent concentration": "inconclusive: 1.4 nM"}, {"smiles": "O=c1oc2c3c4c(cc2c(C(F)(F)F)c1CCN1CCOCC1)CCCN4CCC3", "max dye-equivalent concentration": "inconclusive: 1.3 nM"}, {"smiles": "N#Cc1c(N2CCCCC2)nc(N2CCCCC2)c2c1CCN(Cc1ccccc1)C2", "max dye-equivalent concentration": "inactive"}, {"smiles": "COc1ccc2[nH]c3c(=O)n(Cc4ccco4)cnc3c2c1", "max dye-equivalent concentration": "inconclusive: 1.4 nM"}, {"smiles": "N[C@@](CCc1ccccc1)(C(=O)O)c1ccccc1", "max dye-equivalent concentration": "inactive"}, {"smiles": "O=C(CSc1nc2ccccc2n1CC(=O)N1CCCC1)Nc1nccs1", "max dye-equivalent concentration": "inconclusive: 1.6 nM"}, {"smiles": "c1ccc(-n2ncc3c(NCCN4CCCCC4)ncnc32)cc1", "max dye-equivalent concentration": "inconclusive: 1.8 nM"}, {"smiles": "NS(=O)(=O)c1ccc(CCNc2nc(CN3CCOCC3)nc3sc4c(c23)CCC4)cc1", "max dye-equivalent concentration": "inconclusive: 1.3 nM"}, {"smiles": "COc1ccc(Oc2ncc3nc(CCc4ccccc4)c(=O)n(C)c3n2)cc1", "max dye-equivalent concentration": "inactive"}, {"smiles": "CCn1c(NCc2ccccn2)nc2c1c(=O)n(C)c(=O)n2C", "max dye-equivalent concentration": "inconclusive: 1.1 nM"}, {"smiles": "CCOC(=O)N1CC=C2C(C#N)=C(N)C(C#N)(C#N)[C@H](c3ccsc3)[C@H]2C1", "max dye-equivalent concentration": "inconclusive: 2 nM"}, {"smiles": "CN1CCc2c(sc3c2C(=O)NC(c2ccc4c(c2)OCO4)N3)C1", "note": "(stereo not given)", "max dye-equivalent concentration": "inconclusive: 1.2 nM"}, {"smiles": "CC(C)CCn1c(CN2CCN(Cc3ccccc3)CC2)nc2c1c(=O)n(C)c(=O)n2C", "max dye-equivalent concentration": "inconclusive: 1.2 nM"}, {"smiles": "COc1cccc(N2CC(C)Cn3c2nc2c3c(=O)n(CCN3CCOCC3)c(=O)n2C)c1", "note": "(stereo not given)", "max dye-equivalent concentration": "inconclusive: 1.4 nM"}, {"smiles": "O=S(=O)(c1ccccc1)N1CCC2(CCN(Cc3nccs3)CC2)CC1", "max dye-equivalent concentration": "inactive"}, {"smiles": "CCCCOC(=O)C1C2C=C[C@]3(CN(CCCOC)C(=O)[C@H]13)O2", "note": "(stereo not given in full)", "max dye-equivalent concentration": "inconclusive: 1.1 nM"}, {"smiles": "Nc1nnc(CSc2ccc(Cl)cc2)s1", "max dye-equivalent concentration": "inactive"}, {"smiles": "COc1cc(C2C3=C(CC(C)(C)CC3=O)Nc3c2c(=O)[nH]c(=O)n3Cc2ccccc2)ccc1O", "note": "(stereo not given)", "max dye-equivalent concentration": "inactive"}, {"smiles": "OCCSc1ncnc2c1oc1ccccc12", "max dye-equivalent concentration": "inconclusive: 1.1 nM"}, {"smiles": "CC1(C)Cc2c(c(=S)nc(-c3ccccc3)n2CCCN2CCOCC2)CO1", "max dye-equivalent concentration": "inconclusive: 1.2 nM"}, {"smiles": "CCCc1nc2scc(-c3ccccc3)c2c(=O)n1N", "max dye-equivalent concentration": "inconclusive: 1.5 nM"}, {"smiles": "Cc1cccc(N(C(=O)Cn2nnc3ccccc32)C(C(=O)NCc2ccco2)c2ccncc2)c1C", "note": "(stereo not given)", "max dye-equivalent concentration": "inconclusive: 1.2 nM"}, {"smiles": "Cc1noc(C)c1CSc1nnc(-c2ccccc2)n1Cc1ccco1", "max dye-equivalent concentration": "inconclusive: 1.6 nM"}, {"smiles": "CC(=O)NCCOc1cccc(OCCNC(C)=O)c1", "max dye-equivalent concentration": "inconclusive: 1.2 nM"}, {"smiles": "O=C(OC(C(=O)NCC1CCCO1)c1ccccc1F)c1ccco1", "note": "(stereo not given)", "max dye-equivalent concentration": "inconclusive: 1.7 nM"}, {"smiles": "Cc1noc(C)c1S(=O)(=O)Nc1ccc(C(=O)N2CCN(c3ccc(Cl)cc3)CC2)cc1", "max dye-equivalent concentration": "inconclusive: 1.9 nM"}, {"smiles": "CC(C)N(C)C1CCN(C(=O)Nc2ccc(Cl)c(Cl)c2)CC1", "max dye-equivalent concentration": "inconclusive: 1.6 nM"}, {"smiles": "CN(CCc1ccccn1)c1ccc2c(c1)C(=O)c1ccccc1-2", "max dye-equivalent concentration": "inactive"}, {"smiles": "Cn1c(=O)c2c(nc(SCc3cccnc3)n2Cc2ccc(F)cc2)n(C)c1=O", "max dye-equivalent concentration": "inconclusive: 3.5 nM"}, {"smiles": "C/C(=N/O)c1ccc2cc(Br)c3ccccc3c2c1", "max dye-equivalent concentration": "inactive"}, {"smiles": "Cc1cc(C(=O)Nc2nc3c(s2)CCCC3)no1", "max dye-equivalent concentration": "inconclusive: 1.3 nM"}, {"smiles": "O=C(NCc1cccnc1)C1CCN(S(=O)(=O)c2cccs2)CC1", "max dye-equivalent concentration": "inconclusive: 1.2 nM"}, {"smiles": "O=C(Cc1cn2ccsc2n1)Nc1ccccc1Oc1ccccc1", "max dye-equivalent concentration": "inconclusive: 1.7 nM"}, {"smiles": "COc1ncc2nc(-c3ccc(Cl)cc3)c(=O)n(-c3ccccc3)c2n1", "max dye-equivalent concentration": "inactive"}, {"smiles": "CCc1sc(NC(=O)COC)nc1-c1ccccc1", "max dye-equivalent concentration": "inconclusive: 1.6 nM"}, {"smiles": "CC(=O)N1CCC[C@@]2(CCN(C(=O)Nc3ccccc3)C2)C1", "max dye-equivalent concentration": "inactive"}, {"smiles": "Cc1ccc(C2CC(=O)N3CN(Cc4ccco4)CSC3=C2C#N)cc1", "note": "(stereo not given)", "max dye-equivalent concentration": "inconclusive: 1.1 nM"}, {"smiles": "COc1ccc(CCNS(=O)(=O)c2ccc(F)cc2)cc1OC", "max dye-equivalent concentration": "inconclusive: 1.2 nM"}, {"smiles": "COc1ccc(NC(=O)CSc2nnc(COc3ccccc3)n2Cc2ccco2)cc1OC", "max dye-equivalent concentration": "inconclusive: 1.1 nM"}, {"smiles": "O=C(C1CCC1)N(CCc1ccccc1)Cc1nc2ccccc2c(=O)[nH]1", "max dye-equivalent concentration": "inconclusive: 1.7 nM"}, {"smiles": "O=C(O)[C@H]1CN(CCCP(=O)(O)O)CCN1", "max dye-equivalent concentration": "inconclusive: 1.1 nM"}, {"smiles": "CCOc1ccccc1NC(=O)c1ccccc1N(C)S(C)(=O)=O", "max dye-equivalent concentration": "inconclusive: 1.5 nM"}, {"smiles": "Cn1c(C(=O)N2CCN(c3nc4ccccc4s3)CC2)cc2sccc21", "max dye-equivalent concentration": "inconclusive: 1.1 nM"}, {"smiles": "CC(C)(C)c1nnc2sc(SCC(=O)c3ccccc3)nn2c1=O", "max dye-equivalent concentration": "inconclusive: 1.3 nM"}, {"smiles": "Cc1csc(NC(=O)c2nc3nc(C)cc(C)n3n2)n1", "max dye-equivalent concentration": "inconclusive: 1.1 nM"}, {"smiles": "COc1cccc(Cn2c(N)c(C#N)c3nc4ccccc4nc32)c1OC", "max dye-equivalent concentration": "inactive"}, {"smiles": "COc1cc(OC)cc(C(=O)Nc2ccccc2N2CCOCC2)c1", "max dye-equivalent concentration": "inconclusive: 1.2 nM"}, {"smiles": "O=C(O)CSCC(=O)NCc1ccccc1", "max dye-equivalent concentration": "inconclusive: 1.3 nM"}, {"smiles": "COc1cccc(-n2nnnc2SCC(=O)Nc2cccc(NC(C)=O)c2)c1", "max dye-equivalent concentration": "inconclusive: 1.6 nM"}, {"smiles": "CCCCCCCCCCCCCCCC(=O)NC[C@@H](COP(=O)([O-])OCC[N+](C)(C)C)OCC", "max dye-equivalent concentration": "inactive"}, {"smiles": "COC(=O)c1ccccc1N(C)C(=O)C12CCC(C)(C(=O)O1)C2(C)C", "note": "(stereo not given)", "max dye-equivalent concentration": "inconclusive: 1.4 nM"}, {"smiles": "O=C(Nc1ccc2c(c1)OCCO2)C1CCN(c2nnnn2-c2ccccc2)CC1", "max dye-equivalent concentration": "inconclusive: 1.3 nM"}, {"smiles": "CCOC(=O)Cn1nnnc1CN(Cc1ccc(OC)cc1)Cc1cc2cc(C)cc(C)c2[nH]c1=O", "max dye-equivalent concentration": "inconclusive: 1.4 nM"}, {"smiles": "CCC(NC(=O)Nc1ccc(O)cc1)(C(F)(F)F)C(F)(F)F", "max dye-equivalent concentration": "inconclusive: 1.3 nM"}]}]}
